No constants are given. Whether binding was seen depends on the method and setting. In cells and extracts the contact can be indirect. Some results given as binding are weak or reduced against the parent protein; the word gives no strength. For some of these results: Tags and fused reporters may be left off the sequences shown. Blank lines part the entries; values can stand above or below the molecule they belong to.
Experiments:
[1] = target: T1, HA-THRAP3 S243D (phosphorylation-mimic) (UniProt Q9Y2W1); assay: co-IP; HA-THRAP3 S243D co-expressed with WT or S273A Flag-PPARγ in HEK293T; IP with anti-HA antibody; blot with anti-Flag
T1 sequence: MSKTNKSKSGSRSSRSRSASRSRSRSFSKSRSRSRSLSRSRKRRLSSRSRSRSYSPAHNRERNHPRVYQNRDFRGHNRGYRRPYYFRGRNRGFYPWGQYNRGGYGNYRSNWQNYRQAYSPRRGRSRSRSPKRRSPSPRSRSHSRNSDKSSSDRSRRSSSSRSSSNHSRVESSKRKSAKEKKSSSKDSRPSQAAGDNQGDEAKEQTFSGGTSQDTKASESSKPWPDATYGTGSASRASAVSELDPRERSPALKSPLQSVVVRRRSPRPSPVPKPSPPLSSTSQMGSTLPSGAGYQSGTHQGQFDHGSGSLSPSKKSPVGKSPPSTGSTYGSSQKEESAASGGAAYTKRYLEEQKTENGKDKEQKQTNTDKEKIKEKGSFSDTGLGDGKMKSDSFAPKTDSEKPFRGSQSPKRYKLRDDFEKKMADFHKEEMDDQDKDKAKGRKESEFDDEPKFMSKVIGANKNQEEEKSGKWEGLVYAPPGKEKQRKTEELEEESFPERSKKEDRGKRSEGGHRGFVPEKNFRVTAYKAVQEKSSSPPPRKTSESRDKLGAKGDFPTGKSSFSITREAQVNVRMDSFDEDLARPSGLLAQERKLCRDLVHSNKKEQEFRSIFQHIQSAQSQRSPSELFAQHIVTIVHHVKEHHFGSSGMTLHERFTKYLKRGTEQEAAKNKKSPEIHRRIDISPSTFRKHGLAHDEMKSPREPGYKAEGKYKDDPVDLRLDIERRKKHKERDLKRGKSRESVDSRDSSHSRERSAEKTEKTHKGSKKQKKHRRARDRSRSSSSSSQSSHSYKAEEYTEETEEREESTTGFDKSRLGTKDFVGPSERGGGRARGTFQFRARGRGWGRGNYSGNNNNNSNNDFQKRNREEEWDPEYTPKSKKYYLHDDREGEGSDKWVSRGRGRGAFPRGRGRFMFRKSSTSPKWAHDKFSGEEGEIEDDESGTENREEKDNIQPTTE

Sequences of proteins named here, by UniProt entry; tags and fusion partners are left off.
UniProt P49759: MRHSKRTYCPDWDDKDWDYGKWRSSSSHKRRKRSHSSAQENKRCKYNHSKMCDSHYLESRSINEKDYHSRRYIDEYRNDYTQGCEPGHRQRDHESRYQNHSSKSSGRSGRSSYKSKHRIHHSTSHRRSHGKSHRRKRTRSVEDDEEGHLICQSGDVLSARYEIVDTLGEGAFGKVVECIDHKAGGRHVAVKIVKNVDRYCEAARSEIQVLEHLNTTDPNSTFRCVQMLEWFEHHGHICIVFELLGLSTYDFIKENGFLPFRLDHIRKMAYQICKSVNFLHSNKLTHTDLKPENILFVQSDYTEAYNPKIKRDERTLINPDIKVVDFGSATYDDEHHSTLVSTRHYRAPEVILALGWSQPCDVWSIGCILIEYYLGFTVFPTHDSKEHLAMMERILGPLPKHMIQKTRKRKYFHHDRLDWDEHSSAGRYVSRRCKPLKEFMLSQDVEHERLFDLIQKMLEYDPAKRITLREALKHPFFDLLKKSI
UniProt P37231: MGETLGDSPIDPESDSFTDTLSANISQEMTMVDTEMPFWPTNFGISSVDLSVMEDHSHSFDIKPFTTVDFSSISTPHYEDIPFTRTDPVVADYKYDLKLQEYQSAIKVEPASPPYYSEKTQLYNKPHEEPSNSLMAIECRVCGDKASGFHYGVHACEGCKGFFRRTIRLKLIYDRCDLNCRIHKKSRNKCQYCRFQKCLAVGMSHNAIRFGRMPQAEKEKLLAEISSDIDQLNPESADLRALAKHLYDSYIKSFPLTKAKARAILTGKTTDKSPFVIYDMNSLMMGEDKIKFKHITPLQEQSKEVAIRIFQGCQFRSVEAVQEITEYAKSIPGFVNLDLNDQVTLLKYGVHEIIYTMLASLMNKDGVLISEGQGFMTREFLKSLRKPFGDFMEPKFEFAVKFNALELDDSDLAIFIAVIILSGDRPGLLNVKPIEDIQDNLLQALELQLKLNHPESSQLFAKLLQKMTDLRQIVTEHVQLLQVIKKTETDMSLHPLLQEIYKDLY

Flag-tagged CLK1 [2] = target: Flag-tagged CLK1 (UniProt P49759); assay: co-IP; Flag-tagged CLK1 transfected into HEK293T, pulled down with anti-Flag antibody after 48 h; THRAP3 detected by western blot
[3] = target: Flag-PPARγ (peroxisome proliferator-activated receptor gamma), WT (UniProt P37231); assay: co-IP; HA-tagged THRAP3 (WT, S243A or S243D) co-transfected with Flag-PPARγ into HEK293T; Flag-mediated co-IP; western blot
Flag-tagged CLK1 [4] = target: Flag-tagged CLK1 (UniProt P49759); assay: co-IP; Flag-tagged CLK1 and HA-tagged THRAP3 (WT, ΔN, ΔC or ΔNC) co-transfected into HEK293T; IP with anti-Flag antibody-conjugated agarose beads; blot with anti-HA

- binding [1]: binds
Molecule: Flag-PPARγ (peroxisome proliferator-activated receptor gamma), WT (from UniProt P37231 1-505)

- binding (Flag-tagged CLK1 [2]): binds
B1: thyroid hormone receptor-associated protein 3 (THRAP3) (protein, UniProt Q9Y2W1 1-955)
chain: MSKTNKSKSGSRSSRSRSASRSRSRSFSKSRSRSRSLSRSRKRRLSSRSRSRSYSPAHNRERNHPRVYQNRDFRGHNRGYRRPYYFRGRNRGFYPWGQYNRGGYGNYRSNWQNYRQAYSPRRGRSRSRSPKRRSPSPRSRSHSRNSDKSSSDRSRRSSSSRSSSNHSRVESSKRKSAKEKKSSSKDSRPSQAAGDNQGDEAKEQTFSGGTSQDTKASESSKPWPDATYGTGSASRASAVSELSPRERSPALKSPLQSVVVRRRSPRPSPVPKPSPPLSSTSQMGSTLPSGAGYQSGTHQGQFDHGSGSLSPSKKSPVGKSPPSTGSTYGSSQKEESAASGGAAYTKRYLEEQKTENGKDKEQKQTNTDKEKIKEKGSFSDTGLGDGKMKSDSFAPKTDSEKPFRGSQSPKRYKLRDDFEKKMADFHKEEMDDQDKDKAKGRKESEFDDEPKFMSKVIGANKNQEEEKSGKWEGLVYAPPGKEKQRKTEELEEESFPERSKKEDRGKRSEGGHRGFVPEKNFRVTAYKAVQEKSSSPPPRKTSESRDKLGAKGDFPTGKSSFSITREAQVNVRMDSFDEDLARPSGLLAQERKLCRDLVHSNKKEQEFRSIFQHIQSAQSQRSPSELFAQHIVTIVHHVKEHHFGSSGMTLHERFTKYLKRGTEQEAAKNKKSPEIHRRIDISPSTFRKHGLAHDEMKSPREPGYKAEGKYKDDPVDLRLDIERRKKHKERDLKRGKSRESVDSRDSSHSRERSAEKTEKTHKGSKKQKKHRRARDRSRSSSSSSQSSHSYKAEEYTEETEEREESTTGFDKSRLGTKDFVGPSERGGGRARGTFQFRARGRGWGRGNYSGNNNNNSNNDFQKRNREEEWDPEYTPKSKKYYLHDDREGEGSDKWVSRGRGRGAFPRGRGRFMFRKSSTSPKWAHDKFSGEEGEIEDDESGTENREEKDNIQPTTE

- binding [3]: binds
- binding (Flag-tagged CLK1 [4]): binds
B2: HA-tagged THRAP3 full length (WT) (protein, UniProt Q9Y2W1 1-955)
chain: MSKTNKSKSGSRSSRSRSASRSRSRSFSKSRSRSRSLSRSRKRRLSSRSRSRSYSPAHNRERNHPRVYQNRDFRGHNRGYRRPYYFRGRNRGFYPWGQYNRGGYGNYRSNWQNYRQAYSPRRGRSRSRSPKRRSPSPRSRSHSRNSDKSSSDRSRRSSSSRSSSNHSRVESSKRKSAKEKKSSSKDSRPSQAAGDNQGDEAKEQTFSGGTSQDTKASESSKPWPDATYGTGSASRASAVSELSPRERSPALKSPLQSVVVRRRSPRPSPVPKPSPPLSSTSQMGSTLPSGAGYQSGTHQGQFDHGSGSLSPSKKSPVGKSPPSTGSTYGSSQKEESAASGGAAYTKRYLEEQKTENGKDKEQKQTNTDKEKIKEKGSFSDTGLGDGKMKSDSFAPKTDSEKPFRGSQSPKRYKLRDDFEKKMADFHKEEMDDQDKDKAKGRKESEFDDEPKFMSKVIGANKNQEEEKSGKWEGLVYAPPGKEKQRKTEELEEESFPERSKKEDRGKRSEGGHRGFVPEKNFRVTAYKAVQEKSSSPPPRKTSESRDKLGAKGDFPTGKSSFSITREAQVNVRMDSFDEDLARPSGLLAQERKLCRDLVHSNKKEQEFRSIFQHIQSAQSQRSPSELFAQHIVTIVHHVKEHHFGSSGMTLHERFTKYLKRGTEQEAAKNKKSPEIHRRIDISPSTFRKHGLAHDEMKSPREPGYKAEGKYKDDPVDLRLDIERRKKHKERDLKRGKSRESVDSRDSSHSRERSAEKTEKTHKGSKKQKKHRRARDRSRSSSSSSQSSHSYKAEEYTEETEEREESTTGFDKSRLGTKDFVGPSERGGGRARGTFQFRARGRGWGRGNYSGNNNNNSNNDFQKRNREEEWDPEYTPKSKKYYLHDDREGEGSDKWVSRGRGRGAFPRGRGRFMFRKSSTSPKWAHDKFSGEEGEIEDDESGTENREEKDNIQPTTE
